At least one compound was matched to its structure with a doubt left.
Experiment: Stability of amorphous salt forms of Compound (I), HPLC purity loss on storage
Format: physicochemical
Conditions: 14 days at 40° C., 75% RH
Protocol: HPLC analysis was performed with an Agilent HPLC 1260 series instrument.
The stability of various amorphous salt forms of Compound (I) was also assessed. The salt forms, in general, were prepared by suspending Compound (I) in a suitable solvent at ambient temperature and adding the corresponding acid to the mixture. The mixtures were allowed to stir until a solution was formed, filtered to remove any trace solids, and the resulting filtrate lyophilized to access the salts as solids. Characterization by XRPD established that all salt forms were amorphous. […]

## Cc1cccnc1-c1ccc(-c2n[nH]c3ncc(-c4ccc5c(c4)CC[C@@H](N4C6COCC4C6)CC5)cc23)nc1 [Naphthalene Sulfonate]
  HPLC Purity Loss on Day 14 (%): 2.21%

From patent US20250230173A1, “SALT FORMS OF AN AXL INHIBITOR” (Arcus Biosciences, Inc., priority 2023, published 2025)
